Results are given in words; binding and its absence hold for the method and conditions named. Binding seen in cells or lysates may run through a third protein. Some entries that bind do so weakly or less than the wild type. Tags and fused reporters may be left off the sequences shown.
B1: Cue3 as imaged by HS-AFM in the Slh1/Cue3 complex (natural protein, S. cerevisiae, UniProt P53137 1-624, looked up)
chain: MLSRYNRVIEINGGNADISLPIVKFPPFKLRAQLIEKDPVVWLHLIETYVTYFEYLMQGANVELLDESTLDHLRLFLRTYLHEIADEEGKLLSLGINHDVSEQLYLLKGWIFSLIKKCGLLHLQIFGDSLWNLIKVYVRRNPDSIRGLIDGSLKPRINTQRVQLDKSYQVQQHLKQLIESGKFKRIDLRCVEDLLSAKSMQPNKFAENFFTANWIEILEALWAKGQGRGHKEARELIIISLFSVSADRLLKITKELGISNFETLALYPLLGTMLINEGVHKRLPDLKSKLLFLNLGGLSMDEGDHMSYPTSSGTEVNEEQLSALMELFPQFSKYQLSQTLLAYDNNIELVTNKIFEDPTIIEAFSREPAEEEVEPVSDGDNASFTEELSILDRGDSSKNKELDKKIISEGVPDELRNKTLTRALKLLYEADEDERDDTYDEADVNRSDPSKRIGLQEDEESYDTKDDSNEVRQDHNYHIVEAYLWNLLKEDPKLFERSKRGTKVRKTMKEMTSWSDEKIEGWCRMLERSPTRARLLEKKFMFKGNSKTGKTSYVHNRDSQNDGNVVKEQAKQKKSENIKKHEPQSTEQKKRQHAKNEKRKGARANHNRKKGHDKKLARAGNNAI
notes: Cue3 (RQT3), S. cerevisiae
B2: Rqt4 as imaged by HS-AFM in the Slh1/Rqt4 complex (natural protein, S. cerevisiae, UniProt P36119 1-530, looked up)
chain: MTRKQAIDYAIKQVPQILPLEESDVKALCEQVLSTSSDDPEQIASKFLEFLGHEDLSFEFVMKFNELLNQNDKKEEKKTKNVHLEHTAPTSWKNESKQPTNNYINKKGDEKPKKLKDEKKSSTTRPTVQPSNQSTQSNPIKEKKEHRSKGKLQSLQEIDEAIKMLELRDSGSSKNCNCQGTRHPVFDIAPNCLHCGKVVCVIEGLNKGKCGHCHEQLISDNERTQMVEILNQEKNELNGSSSSLSNASNGANVPKKKTKTYKITSGMGKNLFAEQDKLFDFIERKRERERKRNEVLKLQEEKEESEAKERQASEHDHKAEENPELLAAQERLDRLLYFQDTSAERTKIIDNASDFDMNQEVGLWGSARERALALKKQQRNLRKWEKVEKERNGRREKYVVSMNIGSNGKVTMTEVPKDTENVIAGSDDDISDISDEEDISDLKHIHALKSEINTTKSLENLHLQSKAWDYERDKKQFDRPTYVKKNSDTAQQNRKTEEKAHDMQAYDLKSRVQVDQNADASVEQNILAVL
notes: Rqt4, S. cerevisiae
B3: Rqt4 with the N-terminal domain (residues 3–70) deleted (Flag-tagged) (protein, UniProt P36119)
chain: MTNDKKEEKKTKNVHLEHTAPTSWKNESKQPTNNYINKKGDEKPKKLKDEKKSSTTRPTVQPSNQSTQSNPIKEKKEHRSKGKLQSLQEIDEAIKMLELRDSGSSKNCNCQGTRHPVFDIAPNCLHCGKVVCVIEGLNKGKCGHCHEQLISDNERTQMVEILNQEKNELNGSSSSLSNASNGANVPKKKTKTYKITSGMGKNLFAEQDKLFDFIERKRERERKRNEVLKLQEEKEESEAKERQASEHDHKAEENPELLAAQERLDRLLYFQDTSAERTKIIDNASDFDMNQEVGLWGSARERALALKKQQRNLRKWEKVEKERNGRREKYVVSMNIGSNGKVTMTEVPKDTENVIAGSDDDISDISDEEDISDLKHIHALKSEINTTKSLENLHLQSKAWDYERDKKQFDRPTYVKKNSDTAQQNRKTEEKAHDMQAYDLKSRVQVDQNADASVEQNILAVL
B4: Rqt4 with the zinc-finger domain (residues 145–240) deleted (Flag-tagged) (protein, UniProt P36119)
chain: MTRKQAIDYAIKQVPQILPLEESDVKALCEQVLSTSSDDPEQIASKFLEFLGHEDLSFEFVMKFNELLNQNDKKEEKKTKNVHLEHTAPTSWKNESKQPTNNYINKKGDEKPKKLKDEKKSSTTRPTVQPSNQSTQSNPIKEKKSSSLSNASNGANVPKKKTKTYKITSGMGKNLFAEQDKLFDFIERKRERERKRNEVLKLQEEKEESEAKERQASEHDHKAEENPELLAAQERLDRLLYFQDTSAERTKIIDNASDFDMNQEVGLWGSARERALALKKQQRNLRKWEKVEKERNGRREKYVVSMNIGSNGKVTMTEVPKDTENVIAGSDDDISDISDEEDISDLKHIHALKSEINTTKSLENLHLQSKAWDYERDKKQFDRPTYVKKNSDTAQQNRKTEEKAHDMQAYDLKSRVQVDQNADASVEQNILAVL

Chains of the proteins cited; added tags and fusions are not shown.
UniProt P53327: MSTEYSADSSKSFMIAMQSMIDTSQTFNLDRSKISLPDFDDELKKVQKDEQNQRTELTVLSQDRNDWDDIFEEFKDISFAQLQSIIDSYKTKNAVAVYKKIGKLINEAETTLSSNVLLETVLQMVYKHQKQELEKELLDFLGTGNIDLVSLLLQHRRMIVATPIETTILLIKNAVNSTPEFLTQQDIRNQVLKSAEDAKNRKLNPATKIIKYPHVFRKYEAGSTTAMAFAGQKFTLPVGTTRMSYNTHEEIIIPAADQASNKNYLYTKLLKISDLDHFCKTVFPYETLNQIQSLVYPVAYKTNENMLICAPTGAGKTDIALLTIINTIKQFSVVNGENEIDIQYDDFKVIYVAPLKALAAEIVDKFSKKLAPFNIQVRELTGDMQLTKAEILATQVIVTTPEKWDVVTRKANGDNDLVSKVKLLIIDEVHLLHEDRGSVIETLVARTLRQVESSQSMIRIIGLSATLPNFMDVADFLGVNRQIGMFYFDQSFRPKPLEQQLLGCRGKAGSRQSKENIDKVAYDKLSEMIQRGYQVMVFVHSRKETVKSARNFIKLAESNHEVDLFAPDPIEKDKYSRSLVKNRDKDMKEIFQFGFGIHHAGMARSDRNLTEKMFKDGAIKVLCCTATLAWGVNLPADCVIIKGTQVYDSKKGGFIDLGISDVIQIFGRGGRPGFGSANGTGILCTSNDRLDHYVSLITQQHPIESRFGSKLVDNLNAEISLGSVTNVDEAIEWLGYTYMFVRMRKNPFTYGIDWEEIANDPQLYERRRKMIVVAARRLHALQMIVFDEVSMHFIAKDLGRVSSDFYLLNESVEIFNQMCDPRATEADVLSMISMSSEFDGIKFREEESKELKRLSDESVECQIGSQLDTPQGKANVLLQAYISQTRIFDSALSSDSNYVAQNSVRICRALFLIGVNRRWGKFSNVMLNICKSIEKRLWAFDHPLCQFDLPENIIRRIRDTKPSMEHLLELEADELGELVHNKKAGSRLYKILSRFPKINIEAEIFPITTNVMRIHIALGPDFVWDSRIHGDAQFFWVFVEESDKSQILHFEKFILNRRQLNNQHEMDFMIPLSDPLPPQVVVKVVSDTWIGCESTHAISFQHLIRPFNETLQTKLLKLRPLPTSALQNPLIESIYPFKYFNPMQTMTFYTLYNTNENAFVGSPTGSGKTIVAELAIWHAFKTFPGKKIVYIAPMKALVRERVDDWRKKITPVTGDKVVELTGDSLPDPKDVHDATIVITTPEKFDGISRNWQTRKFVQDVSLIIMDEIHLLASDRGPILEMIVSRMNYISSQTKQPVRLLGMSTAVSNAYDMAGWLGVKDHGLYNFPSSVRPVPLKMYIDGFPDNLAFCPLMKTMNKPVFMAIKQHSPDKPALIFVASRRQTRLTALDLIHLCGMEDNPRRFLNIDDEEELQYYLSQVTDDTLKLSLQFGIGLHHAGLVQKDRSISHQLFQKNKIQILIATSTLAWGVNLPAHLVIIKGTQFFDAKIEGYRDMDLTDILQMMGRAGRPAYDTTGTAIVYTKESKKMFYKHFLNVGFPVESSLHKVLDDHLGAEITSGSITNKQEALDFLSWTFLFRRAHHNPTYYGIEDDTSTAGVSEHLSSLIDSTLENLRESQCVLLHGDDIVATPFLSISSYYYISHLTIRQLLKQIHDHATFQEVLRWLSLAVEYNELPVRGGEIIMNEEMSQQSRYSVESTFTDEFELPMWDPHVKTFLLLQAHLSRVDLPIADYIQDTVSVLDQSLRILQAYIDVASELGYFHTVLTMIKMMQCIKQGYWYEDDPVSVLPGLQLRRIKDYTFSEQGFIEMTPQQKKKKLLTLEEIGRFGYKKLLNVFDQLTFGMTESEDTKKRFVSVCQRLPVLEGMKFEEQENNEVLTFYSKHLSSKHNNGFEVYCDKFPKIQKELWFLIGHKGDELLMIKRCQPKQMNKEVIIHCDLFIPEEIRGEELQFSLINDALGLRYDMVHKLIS

What follows are binders tested against Slh1-Flag-TEV-protein A (S. cerevisiae) (UniProt P53327) (assay: pull-down; RQT factors or mutants co-expressed in yeast; complex captured from the lysate via Slh1-Flag-TEV-protein A on IgG beads in RQT-R buffer (50 mM Tris pH 7.5, 100 mM NaCl, 2.5 mM MgCl2, 0.1% NP-40, 10% glycerol, 100 mM L-arginine); co-purified factors seen by CBB staining or anti-Flag blot).

Binder	binding
B1	binds
B2	binds
B3	binds
B4	no binding
